# Assay results reported in the supplement of paper PMC11438910.
# This is one part of the list. The signal is at background level for most entries.
# Experiments:
# Test in all cases: fluorescence intensity of antibody binding to polysaccharide-coupled beads; higher = stronger binding
# [1] = target: pneumococcal polysaccharide Pn11A
# [2] = target: pneumococcal polysaccharide Pn11B
# [3] = target: pneumococcal polysaccharide Pn11C
# [4] = target: pneumococcal polysaccharide Pn11D
# [5] = target: pneumococcal polysaccharide Pn11F
# [6] = target: pneumococcal polysaccharide Pn12A
# [7] = target: pneumococcal polysaccharide Pn12B
# [8] = target: pneumococcal polysaccharide Pn12F
# [9] = target: pneumococcal polysaccharide Pn13
# [10] = target: pneumococcal polysaccharide Pn14
# [11] = target: pneumococcal polysaccharide Pn15A
# [12] = target: pneumococcal polysaccharide Pn15B
# [13] = target: pneumococcal polysaccharide Pn15C
# [14] = target: pneumococcal polysaccharide Pn15F
# [15] = target: pneumococcal polysaccharide Pn16A
# [16] = target: pneumococcal polysaccharide Pn16F
# [17] = target: pneumococcal polysaccharide Pn17A
# [18] = target: pneumococcal polysaccharide Pn17F
# [19] = target: pneumococcal polysaccharide Pn18A
# [20] = target: pneumococcal polysaccharide Pn18B
# [21] = target: pneumococcal polysaccharide Pn18C
# [22] = target: pneumococcal polysaccharide Pn18F
# [23] = target: pneumococcal polysaccharide Pn19A
# [24] = antibody concentration 81.7561 ng/mL
# [25] = antibody concentration 437.17 ng/mL
# [26] = antibody concentration 2337.65 ng/mL
# [27] = antibody concentration 12500 ng/mL
# [28] = antibody concentration 0.1 ng/mL
# [29] = antibody concentration 0.534724 ng/mL
# [30] = antibody concentration 2.8593 ng/mL
# [31] = antibody concentration 15.2894 ng/mL
binder,measurement,setting,value
4-173.4 (protein) chain 1: QLQLQESGPGLVKPSETLSLTCAVSGGSISSHYWSWIRQPPGKGLEWIGRFSAGGGSTDYNPSLKSRVTISTDTSKNQFTLNLNSVTAADTAVYYCTRGSYTSDYWGQGVLVTVSS chain 2: QAALTQSPSVSGSPGQSVTISCTGTSSDIGGYIRVSWYQQHPGKAPKLMIYEVSKRPSGVSDRFSGSKSGNTASLTISGLQAEDEADYYCFSYARGDTVLLGGGTRLTVL,fluorescence intensity,[1]; [24],28.8 MFI
same,fluorescence intensity,[1]; [25],34 MFI
same,fluorescence intensity,[1]; [26],35 MFI
same,fluorescence intensity,[1]; [27],49.5 MFI
same,fluorescence intensity,[2]; [28],25.2 MFI
same,fluorescence intensity,[2]; [29],26.2 MFI
same,fluorescence intensity,[2]; [30],23.5 MFI
same,fluorescence intensity,[2]; [31],28.2 MFI
same,fluorescence intensity,[2]; [24],28.5 MFI
same,fluorescence intensity,[2]; [25],27 MFI
same,fluorescence intensity,[2]; [26],26.5 MFI
same,fluorescence intensity,[2]; [27],32 MFI
same,fluorescence intensity,[3]; [28],19.2 MFI
same,fluorescence intensity,[3]; [29],22.2 MFI
same,fluorescence intensity,[3]; [30],21.2 MFI
same,fluorescence intensity,[3]; [31],22.8 MFI
same,fluorescence intensity,[3]; [24],24 MFI
same,fluorescence intensity,[3]; [25],21.8 MFI
same,fluorescence intensity,[3]; [26],25 MFI
same,fluorescence intensity,[3]; [27],69 MFI
same,fluorescence intensity,[4]; [28],23 MFI
same,fluorescence intensity,[4]; [29],22.5 MFI
same,fluorescence intensity,[4]; [30],21.8 MFI
same,fluorescence intensity,[4]; [31],23.2 MFI
same,fluorescence intensity,[4]; [24],22.5 MFI
same,fluorescence intensity,[4]; [25],21.5 MFI
same,fluorescence intensity,[4]; [26],25.5 MFI
same,fluorescence intensity,[4]; [27],45 MFI
same,fluorescence intensity,[5]; [28],13.5 MFI
same,fluorescence intensity,[5]; [29],13 MFI
same,fluorescence intensity,[5]; [30],14.8 MFI
same,fluorescence intensity,[5]; [31],14.5 MFI
same,fluorescence intensity,[5]; [24],15.5 MFI
same,fluorescence intensity,[5]; [25],15.8 MFI
same,fluorescence intensity,[5]; [26],15.8 MFI
same,fluorescence intensity,[5]; [27],18 MFI
same,fluorescence intensity,[6]; [28],13.5 MFI
same,fluorescence intensity,[6]; [29],16 MFI
same,fluorescence intensity,[6]; [30],15.5 MFI
same,fluorescence intensity,[6]; [31],12.8 MFI
same,fluorescence intensity,[6]; [24],16 MFI
same,fluorescence intensity,[6]; [25],14.8 MFI
same,fluorescence intensity,[6]; [26],17 MFI
same,fluorescence intensity,[6]; [27],25 MFI
same,fluorescence intensity,[7]; [28],15 MFI
same,fluorescence intensity,[7]; [29],15.5 MFI
same,fluorescence intensity,[7]; [30],14 MFI
same,fluorescence intensity,[7]; [31],15.2 MFI
same,fluorescence intensity,[7]; [24],16 MFI
same,fluorescence intensity,[7]; [25],16.5 MFI
same,fluorescence intensity,[7]; [26],17.8 MFI
same,fluorescence intensity,[7]; [27],25 MFI
same,fluorescence intensity,[8]; [28],18 MFI
same,fluorescence intensity,[8]; [29],19.8 MFI
same,fluorescence intensity,[8]; [30],19.5 MFI
same,fluorescence intensity,[8]; [31],18.5 MFI
same,fluorescence intensity,[8]; [24],19 MFI
same,fluorescence intensity,[8]; [25],22.5 MFI
same,fluorescence intensity,[8]; [26],22 MFI
same,fluorescence intensity,[8]; [27],36.5 MFI
same,fluorescence intensity,[9]; [28],19 MFI
same,fluorescence intensity,[9]; [29],18 MFI
same,fluorescence intensity,[9]; [30],19 MFI
same,fluorescence intensity,[9]; [31],19.2 MFI
same,fluorescence intensity,[9]; [24],18.5 MFI
same,fluorescence intensity,[9]; [25],17.5 MFI
same,fluorescence intensity,[9]; [26],20 MFI
same,fluorescence intensity,[9]; [27],25 MFI
same,fluorescence intensity,[10]; [28],13.5 MFI
same,fluorescence intensity,[10]; [29],16 MFI
same,fluorescence intensity,[10]; [30],14.8 MFI
same,fluorescence intensity,[10]; [31],14.8 MFI
same,fluorescence intensity,[10]; [24],15.5 MFI
same,fluorescence intensity,[10]; [25],17.5 MFI
same,fluorescence intensity,[10]; [26],22.5 MFI
same,fluorescence intensity,[10]; [27],83.2 MFI
same,fluorescence intensity,[11]; [28],12.5 MFI
same,fluorescence intensity,[11]; [29],12 MFI
same,fluorescence intensity,[11]; [30],12.5 MFI
same,fluorescence intensity,[11]; [31],13 MFI
same,fluorescence intensity,[11]; [24],11.8 MFI
same,fluorescence intensity,[11]; [25],13.5 MFI
same,fluorescence intensity,[11]; [26],13 MFI
same,fluorescence intensity,[11]; [27],14 MFI
same,fluorescence intensity,[12]; [28],18.5 MFI
same,fluorescence intensity,[12]; [29],18.5 MFI
same,fluorescence intensity,[12]; [30],17 MFI
same,fluorescence intensity,[12]; [31],18.5 MFI
same,fluorescence intensity,[12]; [24],18.2 MFI
same,fluorescence intensity,[12]; [25],22.5 MFI
same,fluorescence intensity,[12]; [26],22.8 MFI
same,fluorescence intensity,[12]; [27],29.2 MFI
same,fluorescence intensity,[13]; [28],16 MFI
same,fluorescence intensity,[13]; [29],17.8 MFI
same,fluorescence intensity,[13]; [30],15.8 MFI
same,fluorescence intensity,[13]; [31],14.5 MFI
same,fluorescence intensity,[13]; [24],15.5 MFI
same,fluorescence intensity,[13]; [25],19 MFI
same,fluorescence intensity,[13]; [26],19 MFI
same,fluorescence intensity,[13]; [27],20.5 MFI
same,fluorescence intensity,[14]; [28],17 MFI
same,fluorescence intensity,[14]; [29],16.2 MFI
same,fluorescence intensity,[14]; [30],17 MFI
same,fluorescence intensity,[14]; [31],18.2 MFI
same,fluorescence intensity,[14]; [24],17.8 MFI
same,fluorescence intensity,[14]; [25],17.5 MFI
same,fluorescence intensity,[14]; [26],18 MFI
same,fluorescence intensity,[14]; [27],23.5 MFI
same,fluorescence intensity,[15]; [28],15 MFI
same,fluorescence intensity,[15]; [29],13 MFI
same,fluorescence intensity,[15]; [30],13.5 MFI
same,fluorescence intensity,[15]; [31],12.5 MFI
same,fluorescence intensity,[15]; [24],15.2 MFI
same,fluorescence intensity,[15]; [25],15 MFI
same,fluorescence intensity,[15]; [26],15 MFI
same,fluorescence intensity,[15]; [27],18.8 MFI
same,fluorescence intensity,[16]; [28],23.2 MFI
same,fluorescence intensity,[16]; [29],24.2 MFI
same,fluorescence intensity,[16]; [30],23.8 MFI
same,fluorescence intensity,[16]; [31],23.5 MFI
same,fluorescence intensity,[16]; [24],23 MFI
same,fluorescence intensity,[16]; [25],24.5 MFI
same,fluorescence intensity,[16]; [26],26 MFI
same,fluorescence intensity,[16]; [27],33 MFI
same,fluorescence intensity,[17]; [28],21.8 MFI
same,fluorescence intensity,[17]; [29],21 MFI
same,fluorescence intensity,[17]; [30],19.5 MFI
same,fluorescence intensity,[17]; [31],20.8 MFI
same,fluorescence intensity,[17]; [24],20.2 MFI
same,fluorescence intensity,[17]; [25],20 MFI
same,fluorescence intensity,[17]; [26],21 MFI
same,fluorescence intensity,[17]; [27],23.5 MFI
same,fluorescence intensity,[18]; [28],26.5 MFI
same,fluorescence intensity,[18]; [29],25.5 MFI
same,fluorescence intensity,[18]; [30],25 MFI
same,fluorescence intensity,[18]; [31],25.5 MFI
same,fluorescence intensity,[18]; [24],25 MFI
same,fluorescence intensity,[18]; [25],28.2 MFI
same,fluorescence intensity,[18]; [26],28.5 MFI
same,fluorescence intensity,[18]; [27],30 MFI
same,fluorescence intensity,[19]; [28],25 MFI
same,fluorescence intensity,[19]; [29],24.5 MFI
same,fluorescence intensity,[19]; [30],25 MFI
same,fluorescence intensity,[19]; [31],23.5 MFI
same,fluorescence intensity,[19]; [24],23.5 MFI
same,fluorescence intensity,[19]; [25],23 MFI
same,fluorescence intensity,[19]; [26],24 MFI
same,fluorescence intensity,[19]; [27],26.5 MFI
same,fluorescence intensity,[20]; [28],29.8 MFI
same,fluorescence intensity,[20]; [29],30 MFI
same,fluorescence intensity,[20]; [30],29 MFI
same,fluorescence intensity,[20]; [31],28.5 MFI
same,fluorescence intensity,[20]; [24],31 MFI
same,fluorescence intensity,[20]; [25],31.5 MFI
same,fluorescence intensity,[20]; [26],32.5 MFI
same,fluorescence intensity,[20]; [27],37.5 MFI
same,fluorescence intensity,[21]; [28],18.5 MFI
same,fluorescence intensity,[21]; [29],19.5 MFI
same,fluorescence intensity,[21]; [30],18 MFI
same,fluorescence intensity,[21]; [31],20 MFI
same,fluorescence intensity,[21]; [24],18.5 MFI
same,fluorescence intensity,[21]; [25],22 MFI
same,fluorescence intensity,[21]; [26],22.8 MFI
same,fluorescence intensity,[21]; [27],34 MFI
same,fluorescence intensity,[22]; [28],25 MFI
same,fluorescence intensity,[22]; [29],23.8 MFI
same,fluorescence intensity,[22]; [30],23.2 MFI
same,fluorescence intensity,[22]; [31],23.5 MFI
same,fluorescence intensity,[22]; [24],21.5 MFI
same,fluorescence intensity,[22]; [25],23 MFI
same,fluorescence intensity,[22]; [26],28 MFI
same,fluorescence intensity,[22]; [27],32.5 MFI
same,fluorescence intensity,[23]; [28],17.5 MFI
same,fluorescence intensity,[23]; [29],19 MFI
same,fluorescence intensity,[23]; [30],17.8 MFI
same,fluorescence intensity,[23]; [31],17.5 MFI
same,fluorescence intensity,[23]; [24],17.5 MFI
same,fluorescence intensity,[23]; [25],21 MFI
same,fluorescence intensity,[23]; [26],22.5 MFI
same,fluorescence intensity,[23]; [27],27.5 MFI

# Quoted from above for reference:
binder,measurement,setting,value
4-173.4 (protein) chain 1: QLQLQESGPGLVKPSETLSLTCAVSGGSISSHYWSWIRQPPGKGLEWIGRFSAGGGSTDYNPSLKSRVTISTDTSKNQFTLNLNSVTAADTAVYYCTRGSYTSDYWGQGVLVTVSS chain 2: QAALTQSPSVSGSPGQSVTISCTGTSSDIGGYIRVSWYQQHPGKAPKLMIYEVSKRPSGVSDRFSGSKSGNTASLTISGLQAEDEADYYCFSYARGDTVLLGGGTRLTVL,fluorescence intensity,[9]; [24],18.5 MFI
same,fluorescence intensity,[9]; [25],17.5 MFI
same,fluorescence intensity,[9]; [26],20 MFI
same,fluorescence intensity,[9]; [27],25 MFI
same,fluorescence intensity,[10]; [28],13.5 MFI
same,fluorescence intensity,[10]; [29],16 MFI
same,fluorescence intensity,[10]; [30],14.8 MFI
same,fluorescence intensity,[10]; [31],14.8 MFI
same,fluorescence intensity,[10]; [24],15.5 MFI
same,fluorescence intensity,[10]; [25],17.5 MFI
same,fluorescence intensity,[10]; [26],22.5 MFI
same,fluorescence intensity,[10]; [27],83.2 MFI
same,fluorescence intensity,[11]; [28],12.5 MFI
same,fluorescence intensity,[11]; [29],12 MFI
same,fluorescence intensity,[11]; [30],12.5 MFI
same,fluorescence intensity,[11]; [31],13 MFI
same,fluorescence intensity,[11]; [24],11.8 MFI
same,fluorescence intensity,[11]; [25],13.5 MFI
same,fluorescence intensity,[11]; [26],13 MFI
same,fluorescence intensity,[11]; [27],14 MFI
same,fluorescence intensity,[12]; [28],18.5 MFI
same,fluorescence intensity,[12]; [29],18.5 MFI
same,fluorescence intensity,[12]; [30],17 MFI
same,fluorescence intensity,[12]; [31],18.5 MFI
same,fluorescence intensity,[12]; [24],18.2 MFI
same,fluorescence intensity,[12]; [25],22.5 MFI
same,fluorescence intensity,[12]; [26],22.8 MFI
same,fluorescence intensity,[12]; [27],29.2 MFI
same,fluorescence intensity,[13]; [28],16 MFI
same,fluorescence intensity,[13]; [29],17.8 MFI
same,fluorescence intensity,[13]; [30],15.8 MFI
same,fluorescence intensity,[13]; [31],14.5 MFI
same,fluorescence intensity,[13]; [24],15.5 MFI
same,fluorescence intensity,[13]; [25],19 MFI
same,fluorescence intensity,[13]; [26],19 MFI
same,fluorescence intensity,[13]; [27],20.5 MFI
same,fluorescence intensity,[14]; [28],17 MFI
same,fluorescence intensity,[14]; [29],16.2 MFI
same,fluorescence intensity,[14]; [30],17 MFI
same,fluorescence intensity,[14]; [31],18.2 MFI
same,fluorescence intensity,[14]; [24],17.8 MFI
same,fluorescence intensity,[14]; [25],17.5 MFI
same,fluorescence intensity,[14]; [26],18 MFI
same,fluorescence intensity,[14]; [27],23.5 MFI
